Measured values published in US20250073245A1, “COMPOSITION AND METHOD OF TREATING HYPOGONADISM IN MEN” (priority 2023, published 2025).

Test system: hypogonadism in men
Experiment: Study of testosterone cypionate injections every 7 days (with anastrozole) in men, followed by blood work until stabilization
Assay type: in vivo, human
From the text: Patient hemoglobin and total testosterone (TT) levels were used in this Study to determine when a patient becomes “stable” on treatment. The terms “stable”, “stability”, “stabilized” and “stabilization” are defined in this Study as “the point at which a patient's symptoms have resolved, polycythemia has stopped, and TC dosage has remained consistent for at least 3 months.” Polycythemia associated with testosterone replacement therapy (TRT) has commonly been controlled through frequent patient blood donation. […] Several TT “normal” ranges can be found in the literature. For example, the Endocrine Society identifies the normal range for TT levels in males to be 264-916 ng/dL (1,17). However, LabCorp Diagnostics has used the previously accepted “normal” range of 348-1197 ng/dL until 2017 and Quest Diagnostics uses a reference range of 250-1110 ng/dL.
Patients' responses to TC injections administered every 7 days were tracked and the resulting effects of TC dosing on cholesterol, A1c, and PSA levels were documented once stable TT levels were reached.
Subjects: Two cohorts were studied. The two cohorts studied were males that had previously been on TRT and males who had never been on any form of TRT. […]

## C[C@]12CC[C@H]3[C@@H](CCC4=CC(=O)CC[C@@]43C)[C@@H]1CC[C@@H]2OC(=O)CCC1CCCC1 [TC, testosterone cypionate]
6 patients of 60
  patients able to reach stabilization of treatment without taking any anastrozole: 10%
All patients treated in the study
  patients who needed to take an estrogen blocker (anastrozole) 3 days after their TC dosage: 54 out of 60
